Reference: paper PMC12752551

Protein sequences, listed by entry. Tags and fused reporters are not part of them. Residues count along the entry.
UniProt P35579: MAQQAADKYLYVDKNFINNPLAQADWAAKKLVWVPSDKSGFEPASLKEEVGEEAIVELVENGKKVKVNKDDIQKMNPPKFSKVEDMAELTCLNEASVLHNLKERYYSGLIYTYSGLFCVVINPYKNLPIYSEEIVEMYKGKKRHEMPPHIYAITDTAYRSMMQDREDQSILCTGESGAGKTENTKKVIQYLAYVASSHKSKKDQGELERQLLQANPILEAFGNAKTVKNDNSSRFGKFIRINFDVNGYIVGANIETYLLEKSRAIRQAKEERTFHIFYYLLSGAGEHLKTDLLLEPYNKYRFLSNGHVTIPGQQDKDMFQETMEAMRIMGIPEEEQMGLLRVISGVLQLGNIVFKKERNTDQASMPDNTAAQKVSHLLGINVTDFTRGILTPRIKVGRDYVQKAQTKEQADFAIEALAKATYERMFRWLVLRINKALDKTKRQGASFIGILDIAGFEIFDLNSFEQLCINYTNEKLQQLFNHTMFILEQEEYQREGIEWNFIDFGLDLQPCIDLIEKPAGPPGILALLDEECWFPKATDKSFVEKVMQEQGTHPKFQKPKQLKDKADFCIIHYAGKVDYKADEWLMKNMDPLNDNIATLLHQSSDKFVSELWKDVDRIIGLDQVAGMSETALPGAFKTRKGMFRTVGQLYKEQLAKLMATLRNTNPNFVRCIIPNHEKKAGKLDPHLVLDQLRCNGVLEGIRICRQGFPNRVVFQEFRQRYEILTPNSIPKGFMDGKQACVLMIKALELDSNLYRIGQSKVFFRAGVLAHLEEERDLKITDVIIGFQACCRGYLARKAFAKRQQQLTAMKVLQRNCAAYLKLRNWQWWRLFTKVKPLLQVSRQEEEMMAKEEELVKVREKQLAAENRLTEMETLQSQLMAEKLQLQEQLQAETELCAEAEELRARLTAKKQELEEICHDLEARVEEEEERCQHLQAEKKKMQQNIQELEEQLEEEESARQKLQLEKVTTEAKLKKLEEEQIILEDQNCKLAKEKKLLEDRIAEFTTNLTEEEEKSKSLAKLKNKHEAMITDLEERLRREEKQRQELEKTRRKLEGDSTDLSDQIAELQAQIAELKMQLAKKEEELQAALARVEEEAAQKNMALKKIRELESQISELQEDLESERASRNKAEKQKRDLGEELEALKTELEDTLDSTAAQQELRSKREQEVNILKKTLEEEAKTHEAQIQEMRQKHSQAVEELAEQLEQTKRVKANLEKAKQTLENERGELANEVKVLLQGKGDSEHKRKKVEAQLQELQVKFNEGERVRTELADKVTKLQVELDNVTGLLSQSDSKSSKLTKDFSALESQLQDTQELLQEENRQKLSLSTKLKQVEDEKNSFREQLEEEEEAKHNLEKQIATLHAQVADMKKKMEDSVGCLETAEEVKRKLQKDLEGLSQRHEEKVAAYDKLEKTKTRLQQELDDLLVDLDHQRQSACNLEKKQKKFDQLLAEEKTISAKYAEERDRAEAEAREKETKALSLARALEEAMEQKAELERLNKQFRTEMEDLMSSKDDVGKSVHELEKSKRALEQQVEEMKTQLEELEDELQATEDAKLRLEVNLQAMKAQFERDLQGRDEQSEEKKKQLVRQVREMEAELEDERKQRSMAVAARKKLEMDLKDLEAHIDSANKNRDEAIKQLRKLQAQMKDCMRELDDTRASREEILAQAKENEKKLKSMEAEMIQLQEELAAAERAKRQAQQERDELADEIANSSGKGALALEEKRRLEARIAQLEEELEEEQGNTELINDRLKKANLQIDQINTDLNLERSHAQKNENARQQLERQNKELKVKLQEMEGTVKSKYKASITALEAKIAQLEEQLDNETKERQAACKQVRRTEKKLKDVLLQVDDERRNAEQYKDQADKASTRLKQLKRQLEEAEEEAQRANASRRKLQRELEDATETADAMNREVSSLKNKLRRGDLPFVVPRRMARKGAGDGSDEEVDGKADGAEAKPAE
UniProt P98175: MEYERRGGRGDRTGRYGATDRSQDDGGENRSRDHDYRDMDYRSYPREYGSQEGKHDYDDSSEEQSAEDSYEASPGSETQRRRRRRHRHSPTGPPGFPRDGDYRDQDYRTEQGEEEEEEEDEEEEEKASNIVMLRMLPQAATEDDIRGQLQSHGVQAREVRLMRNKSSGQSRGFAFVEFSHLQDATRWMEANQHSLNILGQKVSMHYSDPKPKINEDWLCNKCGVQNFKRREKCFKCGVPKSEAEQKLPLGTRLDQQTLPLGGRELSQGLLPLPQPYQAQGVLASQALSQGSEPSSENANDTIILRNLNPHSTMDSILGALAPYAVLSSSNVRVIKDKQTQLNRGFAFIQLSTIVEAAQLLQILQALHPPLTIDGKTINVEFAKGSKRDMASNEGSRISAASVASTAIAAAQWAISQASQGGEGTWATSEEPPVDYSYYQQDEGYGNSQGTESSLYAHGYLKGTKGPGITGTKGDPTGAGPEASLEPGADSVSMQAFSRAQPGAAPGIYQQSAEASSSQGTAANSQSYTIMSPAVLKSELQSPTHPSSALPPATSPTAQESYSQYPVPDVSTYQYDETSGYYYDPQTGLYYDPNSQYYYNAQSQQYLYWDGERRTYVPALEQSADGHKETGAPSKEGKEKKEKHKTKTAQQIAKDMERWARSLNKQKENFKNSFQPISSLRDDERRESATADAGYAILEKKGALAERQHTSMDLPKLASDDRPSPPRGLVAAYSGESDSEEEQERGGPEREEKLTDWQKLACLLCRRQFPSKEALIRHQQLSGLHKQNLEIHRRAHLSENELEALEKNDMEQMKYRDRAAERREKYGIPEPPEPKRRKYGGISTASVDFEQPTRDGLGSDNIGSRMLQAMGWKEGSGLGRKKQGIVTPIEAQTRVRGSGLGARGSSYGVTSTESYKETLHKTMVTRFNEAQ
UniProt O75533: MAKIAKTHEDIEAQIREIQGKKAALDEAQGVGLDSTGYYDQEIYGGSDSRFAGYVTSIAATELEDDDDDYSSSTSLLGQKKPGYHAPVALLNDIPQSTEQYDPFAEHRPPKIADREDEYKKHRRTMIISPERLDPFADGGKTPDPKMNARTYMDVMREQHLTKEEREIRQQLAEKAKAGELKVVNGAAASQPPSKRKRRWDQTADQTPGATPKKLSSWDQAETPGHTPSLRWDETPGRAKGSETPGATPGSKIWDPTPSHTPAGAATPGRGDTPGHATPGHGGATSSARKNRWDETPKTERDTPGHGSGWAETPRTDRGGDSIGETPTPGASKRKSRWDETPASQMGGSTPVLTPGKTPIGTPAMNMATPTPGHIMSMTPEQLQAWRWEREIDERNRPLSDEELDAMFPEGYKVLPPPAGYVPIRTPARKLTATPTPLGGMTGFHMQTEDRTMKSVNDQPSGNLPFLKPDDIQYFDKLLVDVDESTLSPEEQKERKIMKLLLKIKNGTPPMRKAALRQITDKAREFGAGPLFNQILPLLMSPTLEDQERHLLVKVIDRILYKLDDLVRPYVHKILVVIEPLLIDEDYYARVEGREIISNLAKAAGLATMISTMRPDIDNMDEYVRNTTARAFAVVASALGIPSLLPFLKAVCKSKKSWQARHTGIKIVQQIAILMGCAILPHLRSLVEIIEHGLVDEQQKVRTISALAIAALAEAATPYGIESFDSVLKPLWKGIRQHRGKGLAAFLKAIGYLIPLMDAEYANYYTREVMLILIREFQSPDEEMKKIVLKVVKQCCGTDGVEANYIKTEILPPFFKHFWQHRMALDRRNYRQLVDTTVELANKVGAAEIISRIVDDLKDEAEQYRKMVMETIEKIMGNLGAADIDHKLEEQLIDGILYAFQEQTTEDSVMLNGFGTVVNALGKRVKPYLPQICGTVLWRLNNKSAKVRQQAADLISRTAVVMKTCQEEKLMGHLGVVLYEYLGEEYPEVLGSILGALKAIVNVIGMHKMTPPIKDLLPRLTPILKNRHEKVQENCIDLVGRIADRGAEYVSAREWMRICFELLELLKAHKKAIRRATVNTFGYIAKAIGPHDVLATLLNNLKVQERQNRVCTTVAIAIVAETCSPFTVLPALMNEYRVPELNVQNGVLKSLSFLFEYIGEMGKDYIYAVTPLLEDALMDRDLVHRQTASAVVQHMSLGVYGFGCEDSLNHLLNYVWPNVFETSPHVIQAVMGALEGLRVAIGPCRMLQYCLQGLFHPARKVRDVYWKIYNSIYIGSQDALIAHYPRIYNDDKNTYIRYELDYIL
UniProt P02768, residues 25-609: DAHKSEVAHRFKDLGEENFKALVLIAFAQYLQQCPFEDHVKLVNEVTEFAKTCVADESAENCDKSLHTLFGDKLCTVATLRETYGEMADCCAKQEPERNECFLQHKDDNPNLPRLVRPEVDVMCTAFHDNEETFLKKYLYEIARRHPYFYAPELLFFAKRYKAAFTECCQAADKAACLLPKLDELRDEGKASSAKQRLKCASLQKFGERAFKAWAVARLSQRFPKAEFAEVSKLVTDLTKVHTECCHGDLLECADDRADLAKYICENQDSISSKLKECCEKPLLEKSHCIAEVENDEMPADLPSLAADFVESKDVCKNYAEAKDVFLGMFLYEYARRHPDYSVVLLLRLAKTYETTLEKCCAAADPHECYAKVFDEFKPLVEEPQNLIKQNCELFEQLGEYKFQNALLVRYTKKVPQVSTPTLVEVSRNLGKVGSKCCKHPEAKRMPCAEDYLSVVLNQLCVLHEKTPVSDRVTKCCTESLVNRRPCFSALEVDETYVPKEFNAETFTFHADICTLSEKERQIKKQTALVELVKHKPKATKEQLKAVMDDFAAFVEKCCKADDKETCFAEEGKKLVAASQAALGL
UniProt O43143: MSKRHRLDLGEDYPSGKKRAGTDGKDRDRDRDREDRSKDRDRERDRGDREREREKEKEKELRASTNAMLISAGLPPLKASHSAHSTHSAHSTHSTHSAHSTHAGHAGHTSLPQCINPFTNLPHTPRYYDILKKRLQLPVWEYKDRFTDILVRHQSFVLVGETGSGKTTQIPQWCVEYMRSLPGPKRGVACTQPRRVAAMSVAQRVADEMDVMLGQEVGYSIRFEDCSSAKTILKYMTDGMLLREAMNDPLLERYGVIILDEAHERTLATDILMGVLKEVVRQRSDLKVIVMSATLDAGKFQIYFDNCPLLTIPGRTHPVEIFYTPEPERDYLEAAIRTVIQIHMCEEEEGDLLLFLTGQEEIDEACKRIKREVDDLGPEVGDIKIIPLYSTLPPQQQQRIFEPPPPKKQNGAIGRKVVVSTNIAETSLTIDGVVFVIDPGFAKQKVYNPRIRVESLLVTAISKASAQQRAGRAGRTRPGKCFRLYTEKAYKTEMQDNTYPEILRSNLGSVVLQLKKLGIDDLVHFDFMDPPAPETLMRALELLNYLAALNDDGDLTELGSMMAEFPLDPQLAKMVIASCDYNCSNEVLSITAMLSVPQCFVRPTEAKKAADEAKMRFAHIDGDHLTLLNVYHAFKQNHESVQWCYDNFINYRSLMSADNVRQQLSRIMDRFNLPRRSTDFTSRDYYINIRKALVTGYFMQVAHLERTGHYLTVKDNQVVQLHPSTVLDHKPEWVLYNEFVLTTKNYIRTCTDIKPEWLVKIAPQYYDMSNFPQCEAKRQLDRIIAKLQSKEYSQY
UniProt P08238: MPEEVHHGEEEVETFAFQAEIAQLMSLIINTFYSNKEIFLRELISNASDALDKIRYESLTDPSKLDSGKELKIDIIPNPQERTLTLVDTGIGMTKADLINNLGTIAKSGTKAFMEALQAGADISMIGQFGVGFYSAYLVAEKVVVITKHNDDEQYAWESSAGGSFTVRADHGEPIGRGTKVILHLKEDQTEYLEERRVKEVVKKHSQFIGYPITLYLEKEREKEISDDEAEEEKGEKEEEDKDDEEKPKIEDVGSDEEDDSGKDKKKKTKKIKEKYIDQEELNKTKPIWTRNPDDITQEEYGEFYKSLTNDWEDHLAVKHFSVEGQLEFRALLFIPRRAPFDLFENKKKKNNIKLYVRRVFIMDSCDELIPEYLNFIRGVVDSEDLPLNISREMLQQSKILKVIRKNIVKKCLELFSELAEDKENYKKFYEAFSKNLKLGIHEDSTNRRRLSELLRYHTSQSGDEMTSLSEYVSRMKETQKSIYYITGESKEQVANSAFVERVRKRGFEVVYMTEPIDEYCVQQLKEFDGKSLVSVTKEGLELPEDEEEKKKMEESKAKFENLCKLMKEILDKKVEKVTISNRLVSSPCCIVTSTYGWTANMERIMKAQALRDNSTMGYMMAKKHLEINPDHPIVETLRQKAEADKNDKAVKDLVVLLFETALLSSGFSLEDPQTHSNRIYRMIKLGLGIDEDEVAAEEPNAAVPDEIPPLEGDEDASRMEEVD

Target: T1, Flag-TREX1 (three-prime repair exonuclease 1) (UniProt Q9NSU2)
T1 sequence: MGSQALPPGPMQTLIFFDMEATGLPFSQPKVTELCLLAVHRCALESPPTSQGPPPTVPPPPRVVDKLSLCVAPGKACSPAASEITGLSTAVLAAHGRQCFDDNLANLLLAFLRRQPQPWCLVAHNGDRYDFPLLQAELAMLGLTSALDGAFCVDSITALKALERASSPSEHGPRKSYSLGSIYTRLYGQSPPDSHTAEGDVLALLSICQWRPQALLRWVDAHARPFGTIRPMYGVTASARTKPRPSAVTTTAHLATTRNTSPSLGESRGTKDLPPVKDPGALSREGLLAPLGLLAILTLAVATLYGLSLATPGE
Experiment: affinity purification with mass spectrometry; A549 cells transfected with Flag-TREX1 or empty vector for 48 h; lysate in IP buffer (40 mM Tris-HCl pH 7.4, 150 mM NaCl, 0.5% NP-40); anti-Flag M2 magnetic beads 10 h at 4 °C; gel bands digested, LC-MS/MS

Molecule: Keratin 1 (from UniProt P04264 1-644)
binding: binds

Molecule: Myosin Heavy Chain 9 (from UniProt P35579 1-1960)
binding: binds

Molecule: RNA Binding Motif Protein 10 (from UniProt P98175 1-930)
binding: binds

Molecule: Splicing Factor 3b Subunit 1 (from UniProt O75533 1-1304)
binding: binds

B2: KRT9 (protein, UniProt P35527 1-623)
chain: MSCRQFSSSYLSRSGGGGGGGLGSGGSIRSSYSRFSSSGGGGGGGRFSSSSGYGGGSSRVCGRGGGGSFGYSYGGGSGGGFSASSLGGGFGGGSRGFGGASGGGYSSSGGFGGGFGGGSGGGFGGGYGSGFGGFGGFGGGAGGGDGGILTANEKSTMQELNSRLASYLDKVQALEEANNDLENKIQDWYDKKGPAAIQKNYSPYYNTIDDLKDQIVDLTVGNNKTLLDIDNTRMTLDDFRIKFEMEQNLRQGVDADINGLRQVLDNLTMEKSDLEMQYETLQEELMALKKNHKEEMSQLTGQNSGDVNVEINVAPGKDLTKTLNDMRQEYEQLIAKNRKDIENQYETQITQIEHEVSSSGQEVQSSAKEVTQLRHGVQELEIELQSQLSKKAALEKSLEDTKNRYCGQLQMIQEQISNLEAQITDVRQEIECQNQEYSLLLSIKMRLEKEIETYHNLLEGGQEDFESSGAGKIGLGGRGGSGGSYGRGSRGGSGGSYGGGGSGGGYGGGSGSRGGSGGSYGGGSGSGGGSGGGYGGGSGGGHSGGSGGGHSGGSGGNYGGGSGSGGGSGGGYGGGSGSRGGSGGSHGGGSGFGGESGGSYGGGEEASGSGGGYGGGSGKSSHS
binding: binds

Continued, values first:

binding: binds
Molecule: Albumin (from UniProt P02768 25-609)

binding: binds
Molecule: DEAH-Box Helicase 15 (from UniProt O43143 1-795)

binding: binds
Molecule: Heat Shock Protein 90 Alpha Family Class B Member 1 (from UniProt P08238 1-724)

binding: binds
B1: RFWD3, endogenous (protein, UniProt Q6PCD5 1-774)
chain: MAHEAMEYDVQVQLNHAEQQPAPAGMASSQGGPALLQPVPADVVSSQGVPSILQPAPAEVISSQATPPLLQPAPQLSVDLTEVEVLGEDTVENINPRTSEQHRQGSDGNHTIPASSLHSMTNFISGLQRLHGMLEFLRPSSSNHSVGPMRTRRRVSASRRARAGGSQRTDSARLRAPLDAYFQVSRTQPDLPATTYDSETRNPVSEELQVSSSSDSDSDSSAEYGGVVDQAEESGAVILEEQLAGVSAEQEVTCIDGGKTLPKQPSPQKSEPLLPSASMDEEEGDTCTICLEQWTNAGDHRLSALRCGHLFGYRCISTWLKGQVRKCPQCNKKARHSDIVVLYARTLRALDTSEQERMKSSLLKEQMLRKQAELESAQCRLQLQVLTDKCTRLQRRVQDLQKLTSHQSQNLQQPRGSQAWVLSCSPSSQGQHKHKYHFQKTFTVSQAGNCRIMAYCDALSCLVISQPSPQASFLPGFGVKMLSTANMKSSQYIPMHGKQIRGLAFSSYLRGLLLSASLDNTIKLTSLETNTVVQTYNAGRPVWSCCWCLDEANYIYAGLANGSILVYDVRNTSSHVQELVAQKARCPLVSLSYMPRAASAAFPYGGVLAGTLEDASFWEQKMDFSHWPHVLPLEPGGCIDFQTENSSRHCLVTYRPDKNHTTIRSVLMEMSYRLDDTGNPICSCQPVHTFFGGPTCKLLTKNAIFQSPENDGNILVCTGDEAANSALLWDAASGSLLQDLQTDQPVLDICPFEVNRNSYLATLTEKMVHIYKWE

Results are given in words; binding and its absence hold for the method and conditions named. Binding seen in cells or lysates may run through a third protein. These calls come from enrichment with a bait or labelling near it, and not all partners need be listed. Where a sequence is shown, tags or fusion partners need not be part of it. One block for each molecule: values may come before it.
